Assay results reported in the supplement of paper PMC9744312.
Where a name gives a salt, the structure may show the parent alone. Some of the results follow. The data scatter; read single values as rough.

System: Peyronie's disease tunica albuginea primary fibroblasts
Assay: inhibition of TGF-beta1-induced alpha-SMA expression (myofibroblast transformation), relative to TGF-beta1-only and untreated controls; higher = stronger inhibition of myofibroblast transformation
Conditions: 10 µM; TGF-beta1 10 ng/mL; 72 h

SMILES | inhibition of TGF-beta1-induced alpha-SMA expression [%]
CCCCCCCCC(=O)NCc1ccc(O)c(OC)c1 [Nonivamide] | -1.52
NCCCNCCSP(=O)(O)O [Amifostine] | 17.6
CN(C)C(=O)Oc1ccc[n+](C)c1 [Pyridostigmine Bromide] | 8.69
O=c1[nH]c2ccccc2n1C1CCN(CCCC(c2ccc(F)cc2)c2ccc(F)cc2)CC1 [Pimozide] | 8.77
CC(C)NCC(O)c1ccccc1Cl (centres undefined) [Clorprenaline HCl] | 30.4
CC[N+](C)(CC)CCOC(=O)C(O)(c1ccccc1)c1ccccc1 [Methylbenactyzine Bromide] | 54.8
C[C@@H]1[C@H](O)[C@@H](C)/C=C/C=C/CC/C=C/C=C/C=C/C=C/[C@H](O[C@H]2O[C@@H](C)[C@H](O)[C@@H](N)[C@H]2O)C[C@@H]2O[C@](O)(C[C@@H](O)[C@H](O)CC[C@@H](O)C[C@@H](O)C[C@@H](O)CC(=O)O[C@H]1C)C[C@H](O)[C@H]2C(=O)O [Nystatin (Fungicidin)] | 6.37
N[C@@H]1C[C@H]1c1ccccc1 [Tranylcypromine (2-PCPA) HCl] | 21.6
[O-][n+]1ccccc1[S-].[O-][n+]1ccccc1[S-].[Zn+2] [Zinc Pyrithione] | > 100
O=[N+]([O-])C(Br)(CO)CO [Bronopol] | 15.4
CN1[C@@H]2C[C@@H](OC(=O)[C@H](CO)c3ccccc3)C[C@H]1[C@@H]1O[C@@H]12 [Scopolamine HBr] | 28.2
CC(NC(C)(C)C)C(=O)c1cccc(Cl)c1 (centres undefined) [Amfebutamone (Bupropion) HCl] | 17.8
NC[C@H](CC(=O)O)c1ccc(Cl)cc1 [(R)-baclofen] | -4.27
O=C1CC[C@@]2(O)[C@H]3Cc4ccc(O)c5c4[C@@]2(CCN3CC2CC2)[C@H]1O5 [Naltrexone HCl] | 9.45
Cn1c(CCCC(=O)O)nc2cc(N(CCCl)CCCl)ccc21 [Bendamustine HCl] | -6.69
CN[C@@H]1[C@@H](O)[C@@H](O[C@@H]2[C@@H](O)[C@H](O[C@H]3O[C@H](CN)CC[C@H]3N)[C@@H](N)C[C@H]2N)OC[C@]1(C)O.CN[C@@H]1[C@@H](O)[C@@H](O[C@@H]2[C@@H](O)[C@H](O[C@H]3O[C@H]([C@@H](C)N)CC[C@H]3N)[C@@H](N)C[C@H]2N)OC[C@]1(C)O.CN[C@@H]1[C@@H](O)[C@@H](O[C@@H]2[C@@H](O)[C@H](O[C@H]3O[C@H]([C@@H](C)NC)CC[C@H]3N)[C@@H](N)C[C@H]2N)OC[C@]1(C)O [Gentamicin Sulfate] | -0.757
CC(=O)O[C@H]1C[C@@H]2CC[C@@H]3[C@H](CC[C@@]4(C)[C@H]3C[C@H]([N+]3(C)CCCCC3)[C@@H]4OC(C)=O)[C@@]2(C)C[C@@H]1[N+]1(C)CCCCC1 [Pancuronium dibromide] | 22.1
c1ccc2c(c1)Nc1ccccc1S2 [Phenothiazine] | 33.9
C[C@]12CCC(=O)C=C1C=C[C@@H]1[C@@H]2CC[C@@]2(C)[C@H]1CC[C@@]2(O)CCC(=O)O [Potassium Canrenoate] | 6.44
Cc1cccc(C)c1NC(=O)CN1CCCC1=O [Nefiracetam] | 9.42
Cc1cccc(Cc2c[nH]cn2)c1C [Detomidine HCl] | 6.37
CC(C)C(Br)C(=O)NC(N)=O (centres undefined) [Bromisoval] | 7

SMILES | inhibition of TGF-beta1-induced alpha-SMA expression [%]
CCCC[N+]1(C)[C@@H]2C[C@@H](OC(=O)[C@H](CO)c3ccccc3)C[C@H]1[C@@H]1O[C@@H]12 (some centres undefined) [Butylscopolamine Bromide] | -2.74
CNC1CC(N)C(O)C(OC2OC(CO)C(O)C3OC4(OC(C(N)CO)C(O)C(O)C4O)OC23)C1O (centres undefined) [Hygromycin B] | 14.9
C=CCN1CC[C@]23c4c5ccc(O)c4O[C@H]2C(=O)CC[C@@]3(O)[C@H]1C5 [Naloxone HCl] | 17.7
Cn1cc(C2=C(c3cn(C4CCN(Cc5ccccn5)CC4)c4ccccc34)C(=O)NC2=O)c2ccccc21 | 2.53
NC(=O)c1cc(N2CC2)c([N+](=O)[O-])cc1[N+](=O)[O-] | 31.9
CC(C)OC(=O)[C@H](C)N[P@](=O)(CO[C@H](C)Cn1cnc2c(N)ncnc21)Oc1ccccc1 [Tenofovir Alafenamide (GS-7340)] | 11.4
CC(=O)O[C@H]1CC[C@@]2(C)C(=CC[C@@H]3[C@@H]2CC[C@]2(C)C(=O)CC[C@@H]32)C1 [Dehydroepiandrosterone acetate] | -2.27
CC(C)c1cccc(C(C)C)c1O [Propofol] | 14.9
COc1cc2c(c(OC)c1OC)-c1ccc(OC)c(=O)cc1[C@@H](NC(C)=O)CC2 [Colchicine] | 77.8
O=C(O)c1nn(Cc2ccc(Cl)cc2Cl)c2ccccc12 [Lonidamine] | -4.56
Cc1cc(C(C#N)c2ccc(Cl)cc2)c(Cl)cc1NC(=O)c1cc(I)cc(I)c1O (centres undefined) [Closantel Sodium] | 4.17
Cc1cc(C(C#N)c2ccc(Cl)cc2)c(Cl)cc1NC(=O)c1cc(I)cc(I)c1O (centres undefined) [Closantel] | 7.44
CCOC(=O)Nc1ccc(NCc2ccc(F)cc2)cc1N [Retigabine] | 57.2
CCOC(=O)Nc1ccc(NCc2ccc(F)cc2)cc1N [Retigabine 2HCl] | 65.3
CC(O)(CS(=O)(=O)c1ccc(F)cc1)C(=O)Nc1ccc(C#N)c(C(F)(F)F)c1 (centres undefined) [Bicalutamide] | -11.9
CCOC(=O)c1cncn1[C@H](C)c1ccccc1 [Etomidate] | -19.4
O=c1cccc2n1C[C@@H]1CNC[C@H]2C1 [Cytisine] | 8.05
NCC1(CC(=O)O)CCCCC1 [Gabapentin] | -0.309
NCC1(CC(=O)O)CCCCC1 [Gabapentin HCl] | -1.22
Cc1ccc2c(c1)[C@]13CCCC[C@@H]1[C@H](C2)N(C)CC3 [Dimemorfan phosphate] | 42.7
O=[N+]([O-])O[C@H]1CO[C@H]2[C@@H]1OC[C@H]2O[N+](=O)[O-] [Isosorbide dinitrate] | 0.216
C=C1CC[C@@]2(O)[C@H]3Cc4ccc(O)c5c4[C@@]2(CCN3CC2CC2)[C@H]1O5 [Nalmefene HCl] | 15.5

Not a retest: an excerpt of the list.
SMILES | inhibition of TGF-beta1-induced alpha-SMA expression [%]
Cc1ccc2c(c1)[C@]13CCCC[C@@H]1[C@H](C2)N(C)CC3 [Dimemorfan phosphate] | 42.7
O=[N+]([O-])O[C@H]1CO[C@H]2[C@@H]1OC[C@H]2O[N+](=O)[O-] [Isosorbide dinitrate] | 0.216
